Where “and” joins values, the source holds several entries; their conditions need not be identical. Equal entries are not always repeated. The campaign covered roughly 410,000 compounds. About 18,000 (4.4%) were called active. Inconclusive means that the source gave no clear call. Such entries were picked first, then a sample of the others. Rule as the data show it: active = activity change below about -60%; inconclusive = no clear call, values can overlap the other calls; inactive = above about -39%.
Test: qHTS Assay for inhibitors of the human cytomegalovirus (HCMV)
Settings: HFF cells, HCMV-luciferase reporter, 72 h; at 57.5 µM; stronger effect = lower value
In short: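 Human foreskin fibroblasts infected with luciferase-reporter HCMV at MOI 1 PFU/cell, compounds at two doses. Luciferase measured 72 h post infection; normalized to buffer-only basal and Salinomycin (10uM) controls.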
In the case of `Cn1c(-n2cccc2)c(-c2c(-c3ccc(F)cc3)[nH]c3c2c(=O)n(C)c(=O)n3C)c(=O)n(C)c1=O`, the activity change, negative = inhibition was inactive: 26.5%. In the case of `COc1ccccc1OCCCCN1CCN(C(c2ccccc2)c2ccccc2)CC1`, the activity change, negative = inhibition was inconclusive: -50.6%. With `Cc1ccc(S(=O)(=O)N2CCC(=O)N([C@H](COCc3cccc(C)c3)C(C)C)CC2)cc1` the activity change, negative = inhibition was inactive: -21.7%. For `NC(=O)c1ccccc1NC(=O)CCCCCn1nnc2ccccc2c1=O`, the activity change, negative = inhibition was inactive: -34.8%. For `O=C(Nc1nccs1)c1ccc(S(=O)(=O)NCc2cccs2)cc1`, the activity change, negative = inhibition was inconclusive: -44.7%. With `Cn1c(=N)n(CC(=O)c2ccc(F)cc2)c2ccccc21` the activity change, negative = inhibition was inconclusive: -57.6%. For `CCc1c(C)sc(NC(=O)c2cccs2)c1C(=O)OC(C)C`, the activity change, negative = inhibition was inconclusive: -41.1%. With `CSc1cccc(NC(=O)c2nnn(Cc3ccccc3)c2N)c1` the activity change, negative = inhibition was inactive: 9.95%. In the case of `CCCCN(CC)C(=O)CSc1nc2n[nH]c(C)c2c(=N)n1-c1cccc(C)c1`, the activity change, negative = inhibition was inconclusive: -45.5%. In the case of `COc1ccc(-n2nc3ccc(NC(=O)c4ccc(C#N)cc4F)cc3n2)cc1Cl`, the activity change, negative = inhibition was inconclusive: -55.5%. For `CCc1nnc(NC(=O)CSc2nnc(-c3ccco3)n2CCOC)s1`, the activity change, negative = inhibition was inconclusive: -41.4%. With `O=C(COc1cccc(NC(=O)c2ccccc2)c1)c1ccc(F)cc1` the activity change, negative = inhibition was inconclusive: -46.8%. In the case of `Cc1cccc(NC(=O)c2ccccc2O)c1C`, the activity change, negative = inhibition was active: -85.6%. In the case of `OCCN(Cc1ccccc1)Cc1ccccc1O`, the activity change, negative = inhibition was inconclusive: -48.5%. For `COc1ccc(Cl)cc1NC(=O)NCCn1c(=O)oc2ccc(C)cc21`, the activity change, negative = inhibition was inactive: -22.4%. In the case of `Cn1c(=O)c([N+](=O)[O-])c(Cl)c2ccccc21`, the activity change, negative = inhibition was active: -70.8%. In the case of `CC1CCN(C(=O)CCl)CC1`, the activity change, negative = inhibition was inconclusive: -41.5%. With `COc1ccccc1NC(=O)CN1CCN(CC(=O)Nc2ccc(F)cc2F)CC1` the activity change, negative = inhibition was inconclusive: -43.2%. In the case of `COc1ccccc1C1C2=C(CC(C)(C)CC2=O)N(CC(=O)O)C2=C1C(=O)CC(C)(C)C2`, the activity change, negative = inhibition was inactive: 1.87%. For `O=C(CCCC(=O)NCC1CCCO1)NCC1CCCO1` (stereo unspecified), the activity change, negative = inhibition was inactive: 37.9%. In the case of `Cc1ccc(N2CC(C(=O)Nc3nc4ccc(S(C)(=O)=O)cc4s3)CC2=O)cc1` (stereo unspecified), the activity change, negative = inhibition was inactive: -36%. For `CC(C)Oc1ccc(CCC(=O)N/N=C/c2ccncc2)cc1`, the activity change, negative = inhibition was inactive: -6.2%. For `COC(=O)c1ccccc1NC(=S)N(Cc1ccc2c(c1)OCO2)Cc1cc2cc(OC)ccc2[nH]c1=O`, the activity change, negative = inhibition was inconclusive: -50.5%. In the case of `CCN(c1ccc(NC(=O)c2ccc(N3CCCC3=O)cc2)cc1)C(C)C`, the activity change, negative = inhibition was active: -70.1%. For `Cc1ccc(-n2cc(CNCCCn3ccnc3C)c(-c3ccc(F)cc3)n2)cc1`, the activity change, negative = inhibition was active: -81.7%. With `c1ccc(-c2ccc3c(c2)NC(C2Nc4cc(-c5ccccc5)ccc4O2)O3)cc1` (stereo unspecified) the activity change, negative = inhibition was inconclusive: -47.2%. In the case of `O=C1CCCCC1Sc1nnc(-c2ccc3c(c2)OCO3)o1` (stereo unspecified), the activity change, negative = inhibition was inconclusive: -49.6%. With `CCOC(=O)C1(Cc2cccc(Cl)c2)CCCN(C2CCN(C(C)=O)CC2)C1` (stereo unspecified) the activity change, negative = inhibition was inactive: 0.0999%. For `COc1cc(C(=O)N/N=C/c2ccc3c(c2)c2ccccc2n3C)ccc1O`, the activity change, negative = inhibition was inactive: -14.3%. With `Nc1[nH]n2c(=O)cc(-c3ccccc3)nc2c1N=Nc1ccccc1` the activity change, negative = inhibition was active: -78.7%. In the case of `CCOc1ccc(N(C(=O)CNC(=O)c2cccs2)C(C(=O)NCC2CCCO2)c2ccc(OC)c(OC)c2)cc1` (stereo unspecified), the activity change, negative = inhibition was inconclusive: -45.5%. For `CC(=O)OC1CC(OC2C(O)CC(OC3C(O)CC(OC4CCC5(C)C(CCC6C5CCC5(C)C(C7=CC(=O)OC7)C(O)CC65O)C4)OC3C)OC2C)OC(C)C1OC1OC(CO)C(O)C(O)C1O` (stereo unspecified), the activity change, negative = inhibition was active: -101%. In the case of `CC1CCCCN1c1c(S(=O)(=O)c2ccc(Cl)cc2)cnc2ccccc12` (stereo unspecified), the activity change, negative = inhibition was inconclusive: -54.2%. With `O=C(Nc1ccc(Cl)cc1)Nc1ccccc1Sc1ncc([N+](=O)[O-])s1` the activity change, negative = inhibition was inconclusive: -48.9%. In the case of `CCCCN=C[C@]12CCC(O)CC1(O)CCC1[C@@H]2CC[C@]2(C)[C@H](C3C=CC(=O)O3)CCC12O` (stereo partly specified), the activity change, negative = inhibition was active: -96.8%. In the case of `Cc1cccc(Nc2nnc(SCC(=O)NC(=O)Nc3ccc4c(c3)OCCO4)s2)c1`, the activity change, negative = inhibition was active: -96%. With `Cn1nc([N+](=O)[O-])nc1N1CCOCC1` the activity change, negative = inhibition was inactive: 4%. With `Cc1cc(C)nc(Sc2nc(Nc3ccccc3)nc(Sc3nc(C)cc(C)n3)n2)n1` the activity change, negative = inhibition was active: -72.4%. For `Cc1cc(/C=N/NC(=O)c2ccc(O)cc2)c(C)n1CC(C)C`, the activity change, negative = inhibition was inconclusive: 0%. For `COc1cc2c(OC)cccc2cc1C(=O)O`, the activity change, negative = inhibition was inconclusive: -51.4%. In the case of `CCCC(=O)Oc1ccc(-c2nccc(C(OC)OC)n2)cc1`, the activity change, negative = inhibition was inconclusive: -50.3%. For `CC1(C)CC(N2CCCC2)=CC(=[N+]2CCCCCC2)C1`, the activity change, negative = inhibition was active: -97.6%. With `Cc1ccc(N=Nc2c(C)[nH]n(-c3ccccc3)c2=O)cc1Br` the activity change, negative = inhibition was inactive: 7.74%. For `CCN(CC)CCn1c2c(c(SCC(=O)Nc3ccc(C)c(F)c3)nc1=O)CCC2`, the activity change, negative = inhibition was active: -98.6%. In the case of `CCOc1cc2[nH]c(=S)n(CCC(=O)N3CCc4ccccc4C3)c(=O)c2cc1OCC`, the activity change, negative = inhibition was inconclusive: -41.8%. In the case of `CCc1nccn1S(=O)(=O)c1ccc(OC)c(OC)c1`, the activity change, negative = inhibition was inconclusive: -55.1%. For `O=C(NCc1ccccc1F)c1ccc(S(=O)(=O)Nc2cccc(C(F)(F)F)c2)cc1`, the activity change, negative = inhibition was inconclusive: -40.2%. For `COc1ccc(NC(=O)CN2CCC(NC(=O)c3ccco3)CC2)c([N+](=O)[O-])c1`, the activity change, negative = inhibition was inactive: -16.5%. For `O=C(N/N=C/c1ccc[nH]1)c1ccc(Cl)cc1`, the activity change, negative = inhibition was inconclusive: -48.5%. For `Cc1nnc(SCC2=C(C(=O)O)N3C(=O)C(NC(=O)Cn4ncc(Cl)c4C)C3SC2)s1` (stereo unspecified), the activity change, negative = inhibition was inactive: -3.8%. In the case of `CCN(CC)S(=O)(=O)c1ccc(NC(=O)c2cc3ccc4cccnc4c3[nH]2)cc1`, the activity change, negative = inhibition was inconclusive: -51.6%. For `O=C(NNC1=Nc2ccccc2SC1)c1ccc(F)cc1`, the activity change, negative = inhibition was inconclusive: -49.8%. With `C=CCN(CC=C)CCOc1cc(C)ccc1[N+](=O)[O-]` the activity change, negative = inhibition was inactive: -4.37%. For `CC1(C)CC(=O)c2cc(C(=O)N3CCCC(C)(C)C3)c(=O)n(-c3ccccc3)c2C1`, the activity change, negative = inhibition was active: -77.3%. For `CCOC(=O)Cc1csc(NS(=O)(=O)c2ccc(Cl)cc2)n1`, the activity change, negative = inhibition was inactive: 40.1%. For `C[n+]1c(-c2ccccc2)cc(CCCCc2cc(-c3ccccc3)[n+](C)c(-c3ccccc3)c2)cc1-c1ccccc1`, the activity change, negative = inhibition was active: -97.5%. In the case of `CC1(c2nnc(-c3ccccc3)o2)CC(c2cccc(Cl)c2)=NO1` (stereo unspecified), the activity change, negative = inhibition was inactive: -2.72%. In the case of `CCN1C(=O)/C(=C\c2ccco2)C(C(=O)OC)=C1C`, the activity change, negative = inhibition was inactive: 26.9%. For `CCCC(C(=O)Nc1cccc(S(=O)(=O)N2CCCC2)c1)c1ccccc1` (stereo unspecified), the activity change, negative = inhibition was inconclusive: -49.1%. With `N#Cc1c[nH]n2c(=O)cc(Cc3ccccc3)nc12` the activity change, negative = inhibition was inconclusive: -57.5%. For `COc1ccc(N2CC(NC(=O)c3cccs3)CC2=O)cc1` (stereo unspecified), the activity change, negative = inhibition was inactive: 33.9%. For `CCC(Oc1ccccc1)C(=O)N(CC)CC(=O)NCc1ccc(F)cc1` (stereo unspecified), the activity change, negative = inhibition was inactive: -21.6%. With `COc1ccc(S(=O)(=O)N2CCCC2C(=O)NCc2ccccc2Cl)cc1` (stereo unspecified) the activity change, negative = inhibition was inconclusive: -43.2%. With `Cn1c(=O)c2c(nc(NCCc3ccccc3)n2Cc2ccccc2)n(C)c1=O` the activity change, negative = inhibition was active: -84.2%. For `Cc1nc2sc(C(c3cccs3)N3CCN(c4cccc(Cl)c4)CC3)c(O)n2n1` (stereo unspecified), the activity change, negative = inhibition was active: -61.9%. In the case of `CCc1c(C(=O)N/N=C/c2cccs2)nnn1-c1nonc1N`, the activity change, negative = inhibition was inconclusive: -45%. With `CCOC(=O)CSc1nc2ccccc2c(=O)[nH]1` the activity change, negative = inhibition was inactive: 96.5%. For `COc1ccccc1C(=O)OCC(=O)NCCNC(=O)COC(=O)c1ccccc1OC`, the activity change, negative = inhibition was inactive: -25.9%. For `COc1cc(CCN2C(=O)c3cccc4cccc(c34)C2=O)c(S(=O)(=O)NCCCO)cc1OC`, the activity change, negative = inhibition was inactive: 6.92%. With `Cc1nn(C)c(C(=O)N/N=C/c2cccnc2)c1Cl` the activity change, negative = inhibition was inconclusive: -42.6%. In the case of `COc1ccc(CNC(=O)CCn2nc(C)c3c(C)n(-c4ccccc4)nc3c2=O)c(OC)c1`, the activity change, negative = inhibition was inconclusive: 0%. For `COc1cc(C2c3c(-c4ccc(C)cc4)n[nH]c3C(=O)N2c2ccc(F)cc2)ccc1O` (stereo unspecified), the activity change, negative = inhibition was inconclusive: -59.9%. With `CCN1CCN(C(=O)C(NS(=O)(=O)c2ccc3nc(C)sc3c2)C(C)C)CC1` (stereo unspecified) the activity change, negative = inhibition was inconclusive: -45.1%. For `O=C(C1CC(=O)N(c2ccc3c(c2)OCCO3)C1)N1CCN(S(=O)(=O)c2ccccc2F)CC1` (stereo unspecified), the activity change, negative = inhibition was inconclusive: -41.8%. For `Cc1ccc(C(=O)Nc2ccc(F)cc2)cc1NC1=NC2CS(=O)(=O)CC2S1` (stereo unspecified), the activity change, negative = inhibition was active: -101%. For `O=C(NCCc1c[nH]c2ccc(Cl)cc12)c1ccc([N+](=O)[O-])cc1`, the activity change, negative = inhibition was inconclusive: -47.1%. In the case of `COc1ccc(/C=N/NC(=O)c2cccnc2)cc1CSc1nc2ccccc2s1`, the activity change, negative = inhibition was inconclusive: -56.5%. With `O=C(N/N=C/c1ccccc1[N+](=O)[O-])c1ccc2nc[nH]c2c1` the activity change, negative = inhibition was inactive: 50.1%. In the case of `Cc1cc(=O)oc2cc(NC(=O)c3cc4ccccc4o3)ccc12`, the activity change, negative = inhibition was inactive: 79.2%. For `O=c1c2ccccc2[nH]c(=S)n1Cc1ccc2c(c1)OCO2`, the activity change, negative = inhibition was inconclusive: -50.8%. In the case of `CC(C)Cn1c(N)c(C(=O)COC(=O)c2ccc3ccccc3n2)c(=O)n(C)c1=O`, the activity change, negative = inhibition was inactive: 16.1%. In the case of `Cc1ccc(NC(=O)c2sc3nc[nH]c(=O)c3c2C)cc1Cl`, the activity change, negative = inhibition was inactive: 82.3%. With `Cc1ccc(NC(=O)Cn2c(=O)oc3ccccc32)cc1C` the activity change, negative = inhibition was inactive: 8.03% and inactive: 17.7%. With `CCCCCSc1nnc2c(n1)OC(C)N(C(C)=O)c1ccccc1-2` (stereo unspecified) the activity change, negative = inhibition was inconclusive: -55.2%. In the case of `CCOC(=O)C1CCN(C(=O)C(C)Oc2ccc(Br)cc2)CC1` (stereo unspecified), the activity change, negative = inhibition was inconclusive: -47.5%. In the case of `CNCCCCOc1ccc(C(C)(C)C)cc1Cl`, the activity change, negative = inhibition was inconclusive: -54.9%.

Source: PubChem BioAssay AID1259415 (National Center for Advancing Translational Sciences (NCATS), 2018)
% is scaled to controls: 0 for no effect and ±100 for the full control effect.
